Test results as given in publication doi:10.1101/2022.03.04.22271462.
Results are given in words; binding and its absence hold for the method and conditions named. Binding seen in cells or lysates may run through a third protein. Some results given as binding are weak or reduced against the parent protein; the word gives no strength.

Sequences of proteins named here, by UniProt entry; tags and fusion partners are left off. A change or cut given only in a name is not applied to a line headed by its entry. A line that says so, or that is headed by a name, gives the form on record, which may keep a tag or linker.
UniProt Q9Y6X0: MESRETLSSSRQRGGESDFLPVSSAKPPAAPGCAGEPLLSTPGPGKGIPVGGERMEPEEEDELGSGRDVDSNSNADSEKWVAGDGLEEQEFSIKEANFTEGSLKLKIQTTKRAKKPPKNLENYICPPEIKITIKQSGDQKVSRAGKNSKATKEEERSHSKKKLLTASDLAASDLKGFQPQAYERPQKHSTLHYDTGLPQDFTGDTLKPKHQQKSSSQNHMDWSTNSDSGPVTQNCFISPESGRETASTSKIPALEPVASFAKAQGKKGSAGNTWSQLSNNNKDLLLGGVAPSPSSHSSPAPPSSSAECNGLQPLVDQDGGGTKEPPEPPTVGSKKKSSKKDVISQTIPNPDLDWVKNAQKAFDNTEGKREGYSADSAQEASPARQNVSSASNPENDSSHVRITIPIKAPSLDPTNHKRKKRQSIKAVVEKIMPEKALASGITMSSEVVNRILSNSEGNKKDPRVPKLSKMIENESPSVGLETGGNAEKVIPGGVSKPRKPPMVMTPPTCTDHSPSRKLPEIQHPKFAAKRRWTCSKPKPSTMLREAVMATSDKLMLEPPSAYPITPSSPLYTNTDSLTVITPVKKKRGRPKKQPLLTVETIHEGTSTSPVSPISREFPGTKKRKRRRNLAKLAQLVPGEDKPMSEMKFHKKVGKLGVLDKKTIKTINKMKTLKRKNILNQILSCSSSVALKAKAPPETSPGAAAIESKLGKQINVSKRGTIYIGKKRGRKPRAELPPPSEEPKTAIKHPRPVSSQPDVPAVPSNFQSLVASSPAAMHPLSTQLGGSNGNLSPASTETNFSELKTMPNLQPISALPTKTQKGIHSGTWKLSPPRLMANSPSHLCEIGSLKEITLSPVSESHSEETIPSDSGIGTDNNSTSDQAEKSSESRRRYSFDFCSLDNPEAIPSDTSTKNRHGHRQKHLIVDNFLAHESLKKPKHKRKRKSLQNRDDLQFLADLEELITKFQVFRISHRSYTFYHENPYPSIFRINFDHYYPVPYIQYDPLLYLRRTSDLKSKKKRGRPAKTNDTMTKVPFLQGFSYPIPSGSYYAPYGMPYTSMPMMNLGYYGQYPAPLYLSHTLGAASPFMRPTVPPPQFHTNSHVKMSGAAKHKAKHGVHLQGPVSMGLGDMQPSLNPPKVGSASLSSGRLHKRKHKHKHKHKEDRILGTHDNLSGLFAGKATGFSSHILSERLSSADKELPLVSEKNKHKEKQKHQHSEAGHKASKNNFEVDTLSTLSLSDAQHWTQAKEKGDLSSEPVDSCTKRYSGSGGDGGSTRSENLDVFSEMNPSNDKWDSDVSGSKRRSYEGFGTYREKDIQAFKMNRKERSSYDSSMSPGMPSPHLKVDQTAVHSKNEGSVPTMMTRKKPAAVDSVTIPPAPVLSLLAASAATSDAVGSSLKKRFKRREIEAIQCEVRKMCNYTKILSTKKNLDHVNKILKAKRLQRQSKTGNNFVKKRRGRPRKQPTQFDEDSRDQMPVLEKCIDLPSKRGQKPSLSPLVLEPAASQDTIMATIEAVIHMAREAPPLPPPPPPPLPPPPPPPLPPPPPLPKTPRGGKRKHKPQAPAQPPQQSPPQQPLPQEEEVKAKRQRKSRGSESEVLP
FLAG-SETBP1 p.(Glu858Lys) (Q9Y6X0, form named): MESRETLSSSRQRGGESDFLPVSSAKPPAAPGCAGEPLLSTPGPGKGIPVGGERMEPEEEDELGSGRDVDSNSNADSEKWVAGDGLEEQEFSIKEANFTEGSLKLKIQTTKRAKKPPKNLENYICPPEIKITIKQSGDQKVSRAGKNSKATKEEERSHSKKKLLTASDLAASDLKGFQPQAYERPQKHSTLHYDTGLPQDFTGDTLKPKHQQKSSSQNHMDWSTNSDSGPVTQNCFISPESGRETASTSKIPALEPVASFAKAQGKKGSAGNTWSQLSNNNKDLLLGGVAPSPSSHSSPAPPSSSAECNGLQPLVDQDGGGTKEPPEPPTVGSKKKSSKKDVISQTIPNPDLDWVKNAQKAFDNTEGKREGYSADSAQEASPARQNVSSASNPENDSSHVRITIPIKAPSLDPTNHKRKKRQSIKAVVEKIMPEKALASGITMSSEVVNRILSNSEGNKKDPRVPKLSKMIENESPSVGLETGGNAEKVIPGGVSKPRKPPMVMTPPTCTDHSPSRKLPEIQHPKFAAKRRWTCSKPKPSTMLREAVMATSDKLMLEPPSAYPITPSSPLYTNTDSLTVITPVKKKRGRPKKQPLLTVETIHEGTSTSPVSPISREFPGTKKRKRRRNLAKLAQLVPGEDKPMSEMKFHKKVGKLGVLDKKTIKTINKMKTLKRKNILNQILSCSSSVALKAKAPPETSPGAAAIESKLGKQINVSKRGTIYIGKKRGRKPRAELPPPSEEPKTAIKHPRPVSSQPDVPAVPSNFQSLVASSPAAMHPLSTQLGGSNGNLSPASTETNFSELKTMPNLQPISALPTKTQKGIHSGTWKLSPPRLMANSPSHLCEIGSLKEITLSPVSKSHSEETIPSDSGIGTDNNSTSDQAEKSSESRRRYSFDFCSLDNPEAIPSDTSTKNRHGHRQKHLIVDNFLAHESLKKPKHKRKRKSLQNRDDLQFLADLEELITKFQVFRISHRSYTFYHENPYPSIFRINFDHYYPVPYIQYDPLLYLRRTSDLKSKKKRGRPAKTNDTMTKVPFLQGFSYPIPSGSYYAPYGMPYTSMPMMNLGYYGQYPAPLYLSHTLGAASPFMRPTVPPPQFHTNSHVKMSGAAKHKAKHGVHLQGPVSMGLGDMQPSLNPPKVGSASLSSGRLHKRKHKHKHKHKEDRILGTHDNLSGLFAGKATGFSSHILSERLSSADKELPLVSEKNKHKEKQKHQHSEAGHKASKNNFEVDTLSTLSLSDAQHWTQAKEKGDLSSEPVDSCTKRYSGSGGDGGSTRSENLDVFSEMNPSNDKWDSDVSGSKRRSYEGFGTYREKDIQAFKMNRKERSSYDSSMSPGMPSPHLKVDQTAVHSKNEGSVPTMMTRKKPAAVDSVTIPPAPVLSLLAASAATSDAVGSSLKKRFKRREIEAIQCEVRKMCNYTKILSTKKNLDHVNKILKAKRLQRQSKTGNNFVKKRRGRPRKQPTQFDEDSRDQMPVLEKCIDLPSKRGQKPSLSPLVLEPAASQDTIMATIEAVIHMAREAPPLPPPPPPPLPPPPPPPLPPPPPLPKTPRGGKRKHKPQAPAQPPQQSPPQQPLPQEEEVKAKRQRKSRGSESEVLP
FLAG-SETBP1 p.(Leu957Pro) (Q9Y6X0, form named): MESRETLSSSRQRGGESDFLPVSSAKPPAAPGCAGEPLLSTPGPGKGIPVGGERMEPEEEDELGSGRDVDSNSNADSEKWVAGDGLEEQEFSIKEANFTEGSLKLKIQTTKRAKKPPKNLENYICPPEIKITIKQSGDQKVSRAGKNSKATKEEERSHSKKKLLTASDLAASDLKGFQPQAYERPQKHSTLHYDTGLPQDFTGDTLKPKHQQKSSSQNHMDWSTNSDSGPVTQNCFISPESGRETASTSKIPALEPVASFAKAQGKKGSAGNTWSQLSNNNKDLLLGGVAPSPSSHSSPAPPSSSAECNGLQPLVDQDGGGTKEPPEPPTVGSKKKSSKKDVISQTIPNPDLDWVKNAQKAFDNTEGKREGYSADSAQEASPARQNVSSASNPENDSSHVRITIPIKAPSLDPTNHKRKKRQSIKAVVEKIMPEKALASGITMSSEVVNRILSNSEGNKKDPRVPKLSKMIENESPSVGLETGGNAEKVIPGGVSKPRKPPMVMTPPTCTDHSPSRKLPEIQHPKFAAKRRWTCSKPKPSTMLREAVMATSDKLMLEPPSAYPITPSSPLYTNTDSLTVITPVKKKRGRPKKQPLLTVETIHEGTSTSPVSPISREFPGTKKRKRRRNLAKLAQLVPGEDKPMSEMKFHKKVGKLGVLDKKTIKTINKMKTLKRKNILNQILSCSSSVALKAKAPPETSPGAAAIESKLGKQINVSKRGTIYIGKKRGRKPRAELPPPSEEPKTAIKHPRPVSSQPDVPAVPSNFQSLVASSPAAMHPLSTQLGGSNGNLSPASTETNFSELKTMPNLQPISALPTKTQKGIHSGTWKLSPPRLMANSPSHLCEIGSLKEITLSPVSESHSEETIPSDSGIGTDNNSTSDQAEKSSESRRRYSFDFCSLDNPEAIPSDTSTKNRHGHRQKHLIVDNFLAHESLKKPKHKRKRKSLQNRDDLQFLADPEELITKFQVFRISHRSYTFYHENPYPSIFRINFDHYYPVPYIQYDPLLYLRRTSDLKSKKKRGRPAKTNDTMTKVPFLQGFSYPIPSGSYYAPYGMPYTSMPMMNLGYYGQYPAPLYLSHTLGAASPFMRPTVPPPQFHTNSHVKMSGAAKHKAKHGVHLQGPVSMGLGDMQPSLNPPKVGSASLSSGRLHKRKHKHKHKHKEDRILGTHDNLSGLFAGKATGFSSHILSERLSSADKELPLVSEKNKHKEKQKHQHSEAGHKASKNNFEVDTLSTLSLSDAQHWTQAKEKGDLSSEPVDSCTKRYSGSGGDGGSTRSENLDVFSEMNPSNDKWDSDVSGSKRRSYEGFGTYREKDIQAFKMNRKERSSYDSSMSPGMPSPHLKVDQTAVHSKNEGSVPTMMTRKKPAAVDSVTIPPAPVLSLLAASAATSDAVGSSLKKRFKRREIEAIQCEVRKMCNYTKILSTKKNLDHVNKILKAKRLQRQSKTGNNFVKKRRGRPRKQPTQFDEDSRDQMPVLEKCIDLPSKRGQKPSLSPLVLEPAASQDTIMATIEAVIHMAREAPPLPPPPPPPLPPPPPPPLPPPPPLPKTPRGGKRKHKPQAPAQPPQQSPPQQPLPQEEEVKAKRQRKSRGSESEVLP
FLAG-SETBP1 p.(Thr962del) (Q9Y6X0, form named): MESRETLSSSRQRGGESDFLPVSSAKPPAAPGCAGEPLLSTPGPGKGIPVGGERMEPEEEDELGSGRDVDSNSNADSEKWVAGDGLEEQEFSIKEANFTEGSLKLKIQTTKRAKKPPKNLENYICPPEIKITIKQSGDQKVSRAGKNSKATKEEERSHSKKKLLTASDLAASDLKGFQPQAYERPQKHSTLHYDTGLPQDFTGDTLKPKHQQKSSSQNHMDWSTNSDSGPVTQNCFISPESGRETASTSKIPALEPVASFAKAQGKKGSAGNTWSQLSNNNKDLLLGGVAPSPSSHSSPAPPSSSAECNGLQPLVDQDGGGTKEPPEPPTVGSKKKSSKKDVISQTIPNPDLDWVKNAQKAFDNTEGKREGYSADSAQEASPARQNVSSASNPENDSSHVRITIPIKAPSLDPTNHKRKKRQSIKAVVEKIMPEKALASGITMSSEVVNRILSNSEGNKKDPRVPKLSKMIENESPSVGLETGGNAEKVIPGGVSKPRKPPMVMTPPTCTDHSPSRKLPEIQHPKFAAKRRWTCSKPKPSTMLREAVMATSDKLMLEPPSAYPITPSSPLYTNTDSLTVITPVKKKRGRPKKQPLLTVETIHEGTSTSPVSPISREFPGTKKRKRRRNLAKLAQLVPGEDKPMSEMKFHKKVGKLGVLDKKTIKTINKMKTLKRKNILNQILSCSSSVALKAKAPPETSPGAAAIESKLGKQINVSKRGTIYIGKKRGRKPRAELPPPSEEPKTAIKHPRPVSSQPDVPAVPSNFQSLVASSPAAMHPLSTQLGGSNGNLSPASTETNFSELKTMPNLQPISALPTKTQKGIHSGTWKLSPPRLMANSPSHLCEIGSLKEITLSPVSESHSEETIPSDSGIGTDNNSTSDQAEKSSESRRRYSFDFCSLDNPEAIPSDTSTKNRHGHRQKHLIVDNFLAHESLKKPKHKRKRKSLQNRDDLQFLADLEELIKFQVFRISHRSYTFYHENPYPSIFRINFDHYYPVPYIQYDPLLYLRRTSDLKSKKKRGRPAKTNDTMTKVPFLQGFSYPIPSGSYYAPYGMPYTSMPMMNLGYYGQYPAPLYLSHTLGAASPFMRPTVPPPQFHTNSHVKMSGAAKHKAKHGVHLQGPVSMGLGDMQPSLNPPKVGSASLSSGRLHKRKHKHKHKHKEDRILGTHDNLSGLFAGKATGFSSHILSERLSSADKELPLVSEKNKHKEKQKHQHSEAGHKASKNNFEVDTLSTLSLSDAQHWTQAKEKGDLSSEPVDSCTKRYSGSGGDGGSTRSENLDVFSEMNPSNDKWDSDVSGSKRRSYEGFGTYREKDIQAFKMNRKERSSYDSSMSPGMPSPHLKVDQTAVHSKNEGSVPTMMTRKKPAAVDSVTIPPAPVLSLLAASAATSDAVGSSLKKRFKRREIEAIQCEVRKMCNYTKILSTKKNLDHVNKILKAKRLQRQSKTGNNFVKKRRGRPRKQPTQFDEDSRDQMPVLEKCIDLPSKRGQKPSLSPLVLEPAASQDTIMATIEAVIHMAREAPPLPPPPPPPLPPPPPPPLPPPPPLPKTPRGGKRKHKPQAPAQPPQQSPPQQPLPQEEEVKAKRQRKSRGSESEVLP

How the values were obtained:
Assay in all cases: co-IP
[1] = target: FLAG-SETBP1 p.(Glu858Lys) (human) (UniProt Q9Y6X0)
[2] = target: FLAG-SETBP1 p.(Leu957Pro) (human) (UniProt Q9Y6X0)
[3] = target: FLAG-SETBP1 wild type (full-length SETBP1 with C-terminal Myc-DDK tag, pCMV-Entry-SETBP1) (human) (UniProt Q9Y6X0)
[4] = target: FLAG-SETBP1 p.(Thr962del) (human) (UniProt Q9Y6X0)

Measured: binding

GFP-SET (from UniProt Q01105 1-290)
binds: all assays above
